Not every detail of the peptide structures is certain; ends, links or a residue may be inferred. Numbered stars: 1 amine (or outer) side, 2 acyl side, 3 side chain; on linkers, the order of the positions; unused ones are H or OH. Square brackets hold non-standard residues; d marks the D form. Peptide text beside a SMILES is read from it. X1 = NN([C@H](Cc1ccccc1)C(=O)[*:2])[*:1]; Orn(Nα-NH2) = NCCC[C@H](NN)C(=O)O; Orn = NCCC[C@H](N)C(=O)O
Columns and labels:
Format in all cases: cell-based
Enterococcus faecium = assay: MIC determination against ESKAPE pathogens (broth culture, 96-well, turbidity); details: Enterococcus faecium strain 1450; 37° C.
Protocol: (§1) The antimicrobial activity of the compounds disclosed herein was tested against a variety of bacteria. The bacterial strains comprised a panel of drug-resistant gram-positive and gram-negative bacteria known as ESKAPE pathogens. The minimum inhibitory concentration (MIC) for the compounds were determined as follows. Broth cultures of ESKAPE strains were grown overnight before being diluted 1 in 1000 in fresh media. Sterile 96-well plates were loaded with culture, and compounds (in DMSO) were added at decreasing concentrations to equal a total volume of 200 μL per well. Care was taken to not add more than 2.0% DMSO to any well. Plates were then incubated at 37° C., and MICs determined after 24 h by visual inspection for a lack of turbidity in wells. All assays were performed in triplicate with identical results obtained.

Acinetobacter baumannii = assay: as above; details: Acinetobacter baumannii strain 5075; 37° C.
Protocol: as §1

Enterobacter cloacae = assay: as above; details: Enterobacter cloacae strain 1454; 37° C.
Protocol: as §1

Staphylococcus aureus = assay: as above; details: Staphylococcus aureus strain 635; 37° C.
Protocol: as §1

Pseudomonas aeruginosa = assay: as above; details: Pseudomonas aeruginosa strain 1419; 37° C.
Protocol: as §1

gram-negative bacteria = assay: Antimicrobial activity, summary for gram-negative bacteria; details: compared to GS
Protocol: as §1

Row | SMILES | MC90 Results, Ef (+) (Enterococcus faecium) [µM] | MC90 Results, Ab (−) (Acinetobacter baumannii) [µM] | MC90 Results, Ec (−) (Enterobacter cloacae) [µM] | MC90 Results, Sa (+) (Staphylococcus aureus) [µM] | MC90 Results, Pa (−) (Pseudomonas aeruginosa) [µM] | activity against gram-negative bacteria (gram-negative bacteria)
1 | CC(C)C[C@@H]1NC(=O)[C@H](CCCN)NC(=O)[C@H](C(C)C)NC(=O)[C@@H]2CCCN2C(=O)[C@@H](Cc2ccccc2)N(N)C(=O)[C@H](CC(C)C)NC(=O)[C@H](CCCN)N(N)C(=O)[C@H](C(C)C)NC(=O)[C@@H]2CCCN2C(=O)[C@@H](Cc2ccccc2)NC1=O [Compound 6] (HELM PEPTIDE1{L.[dF].P.V.[NCCC[C@@H](C(=O)[*:2])N(N)[*:1]].L.[NN([C@H](Cc1ccccc1)C(=O)[*:2])[*:1]].P.V.[Orn]}$PEPTIDE1,PEPTIDE1,1:R1-10:R2$$$V2.0) | 3 | 6.5 | 15 | 2 | 15 | improved significantly
2 | CC(C)C[C@@H]1NC(=O)[C@H](CCCN)NC(=O)[C@H](C(C)C)NC(=O)[C@@H]2CCCN2C(=O)[C@@H](Cc2ccccc2)N(N)C(=O)[C@H](CC(C)C)NC(=O)[C@H](CCCN)N(N)C(=O)[C@H](C(C)C)NC(=O)[C@@H]2CCCN2C(=O)[C@@H](Cc2ccccc2)N(N)C1=O [Compound 5] (cyclo(L[X1]PV[Orn]L[X1]PV[Orn(Nα-NH2)])) | 3 | 6.5 | 35 | 3 | 20 | –
